# The list shows a part of the results. These are further read-outs of the screen, such as a control signal, another cell line or another target. No call is given for them. Most of these compounds were active or inconclusive in the main read-out, so they are no random draw. The note in brackets gives the kind of curve behind each potency; many fits are weak.
# Test: qHTS Assay to Find Inhibitors of Chronic Active B-Cell Receptor Signaling
# Conditions: ABC-DLBCL IkBa-CBG/CBR reporter, luminescence ratio (green luciferase fused to IkBa over red control in TMD8 lymphoma cells), 4 h
# Procedure, shortened: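 Concentration-response series (up to 46 uM) were applied to TMD8 dual-reporter cells for 4 h at 37C with doxycycline. Green/red ratio, after filter-overlap correction, defined %Activity; red signal alone was normalised to basal cells and zero luminescence.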
# [1] = measured here: CBR red luminescence, cell number
# [2] = measured here: IkBa-CBG green luminescence
Compound,AC50 [1],AC50 [2]
Cc1nc2ccccc2c(=O)n1-c1ccc([N+](=O)[O-])cc1,"20 µM [rising, partial curve, poor fit]",–
CCN1C(=O)/C(=C\c2ccc([N+](=O)[O-])s2)C(=O)NC1=S,"5.62 µM [falling, single point]",–
COc1ccc(-c2cc(=O)c3c(OC)c(OC)c(OC)cc3o2)cc1,"5.62 µM [falling, partial curve]","22.4 µM [rising, partial curve, poor fit]"
Oc1ccc2c3c1O[C@H]1c4[nH]c5ccccc5c4C[C@@]4(O)[C@@H](C2)N(CC2CC2)CC[C@]314,"18.4 µM [falling, partial curve, poor fit]",–
COc1ccc(C(=O)c2nc3ccccc3n2C(C)C)cc1OC,"20 µM [rising, single point]",–
O=C(Nc1ccccc1)c1cc([N+](=O)[O-])ccc1N1CCNCC1,"11.2 µM [rising, partial curve]",–
O=C(Nc1ccc2c(c1)OCO2)c1cccn(Cc2ccc(F)cc2)c1=O,"0.398 µM [falling, full curve, poor fit]",–
Cc1ccc(C2=NCC(=O)Nc3ccc(Br)cc32)cc1,"17.8 µM [rising, partial curve, poor fit]","12.6 µM [falling, partial curve, poor fit]"
CN1CC(C(=O)c2ccc(Cl)cc2)C(c2ccc(N(C)C)cc2)C1 (stereo not drawn),"35.5 µM [falling, single point]",–
COc1ccc(NC(=O)c2cc([N+](=O)[O-])ccc2N2CCNCC2)cc1,"10 µM [falling, partial curve, poor fit]",–
OC(c1ccccc1)(c1ccc(Cl)cc1)C1CN2CCC1CC2 (stereo not drawn),"22.4 µM [falling, single point]",–
COc1cccc(/C=C2\SC(=S)N(CCC(=O)NCCc3ccc(O)cc3)C2=O)c1,"11.2 µM [falling, partial curve, poor fit]",–
O=C1CC(=O)N(c2ccccc2)C(=O)N1c1ccccc1,"20 µM [falling, single point]",–
C/C(=N\NC(=O)c1ccccc1O)c1c(O)n(Cc2ccccc2)c(=O)[nH]c1=O,"10 µM [falling, partial curve]",–
N=C1c2ccccc2CN1NC(=O)c1ccccc1,"20.6 µM [falling, partial curve]",–
CCOc1ccc(Br)c(C2(O)CC(C)N(C)CC2C)c1 (stereo not drawn),"32.6 µM [falling, single point]",–
CC1=CC(=Cc2sc3ccccc3[n+]2C)C=C(C)O1,"3.55 µM [rising, partial curve, poor fit]",–
COc1ccc(C(=O)CC2C(=O)N(C)C(=O)N(C)C2=O)cc1,"18.4 µM [falling, single point]","25.9 µM [rising, partial curve, poor fit]"
CC(=O)c1cccc(NC(=S)NCc2ccco2)c1,"6.31 µM [rising, single point]",–
CS(=O)(=O)N1CCN(C(=N)N[N+](=O)[O-])CC1,"10 µM [falling, partial curve, poor fit]",–

Compound,AC50 [1],AC50 [2]
COc1ccc(C)cc1NC(=O)c1c(C)nn(Cc2ccccc2)c1Cl,"13 µM [falling, partial curve]",–
CCOC(=O)N1C(=O)[C@](c2ccc(Cl)cc2)(C(C)C)N1C(=O)OCC,"12.6 µM [falling, partial curve]",–
COC(=O)C1=C(c2ccccc2OCc2ccccc2)C[C@@H]2CC[C@H]1N2C(=O)NCc1ccc(F)cc1,"18.4 µM [falling, single point]",–
CN1C(=O)CN=C(c2ccc(Cl)cc2)c2cc(Cl)ccc21,"7.94 µM [falling, partial curve]","18.4 µM [falling, partial curve]"
COC(=O)C1=C(c2ccccc2OCc2ccccc2)C[C@@H]2CC[C@H]1N2C(=O)NCc1cccc(F)c1,"11.6 µM [falling, partial curve]",–
OC(COCc1ccc(Cl)cc1)CN1CC=C(c2ccccc2)CC1 (stereo not drawn),"35.5 µM [falling, single point]",–
CCOc1ccc(-n2c(/C=C/c3ccccc3)nc3ccccc3c2=O)cc1,"0.112 µM [falling, full curve, poor fit]",–
O=C(NCCCN1CCCC1)c1ccc2c(Cl)c3c(nc2c1)CCCC3,"10 µM [falling, partial curve, poor fit]",–
Cc1nc2ccccc2c(=O)n1-c1cc([N+](=O)[O-])cc([N+](=O)[O-])c1,"14.1 µM [rising, single point]",–
COc1cc2nc(Nc3ccc(F)cc3)nc(N)c2cc1OC,"10 µM [falling, partial curve, poor fit]",–
Cc1ccc(-n2c(O)c(C=Nc3ccc(S(N)(=O)=O)cc3)c(=O)[nH]c2=O)cc1,"35.5 µM [falling, single point]",–
O=C(Nc1cccnc1)c1cc(-c2cccc(Br)c2)nc2ccccc12,"35.5 µM [falling, single point]",–
COc1ccc(NC(=O)c2cn(CCC#N)nc2-c2ccc(OC)c(OC)c2)cc1,"2.24 µM [rising, full curve, poor fit]",–
CCCCCSc1cc(O)c(C(CNC)C(C)C)cc1OC (stereo not drawn),"18.4 µM [falling, single point]",–
Cc1ccc(-c2nc3ccccc3c(=O)n2-c2cc(C)ccn2)cc1,"3.55 µM [falling, single point]",–
CSc1ccc(C(c2c(O)c3ccccc3oc2=O)c2c(C)n(C)n(-c3ccccc3)c2=O)cc1 (stereo not drawn),"35.5 µM [falling, partial curve, poor fit]",–
COc1cc(/C=N/n2cnnc2)ccc1OC(=O)N(C)C,"1.46 µM [rising, full curve, poor fit]",–
O=P(Nc1ccccc1)(Nc1ccccc1)Oc1ccccc1,"2.31 µM [rising, full curve]",–
Cc1cccc(-c2nc3ccccc3c(=O)n2-n2cccc2)c1,"4.11 µM [rising, single point]",–

# Two entries from above, tab-delimited:
Compound	AC50 [1]	AC50 [2]
CSc1ccc(C(c2c(O)c3ccccc3oc2=O)c2c(C)n(C)n(-c3ccccc3)c2=O)cc1 (stereo not drawn)	35.5 µM [falling, partial curve, poor fit]	–
COc1cc(/C=N/n2cnnc2)ccc1OC(=O)N(C)C	1.46 µM [rising, full curve, poor fit]	–
